These results are taken from the supplement of paper PMC12595434, “Development of retinoid nuclear receptor pathway antagonists through targeting aldehyde dehydrogenase 1A3” (iScience, 2025).

Sequences of proteins named here, by UniProt entry; tags and fusion partners are left off. A change or cut given only in a name is not applied to a line headed by its entry.
UniProt Q5BJH2: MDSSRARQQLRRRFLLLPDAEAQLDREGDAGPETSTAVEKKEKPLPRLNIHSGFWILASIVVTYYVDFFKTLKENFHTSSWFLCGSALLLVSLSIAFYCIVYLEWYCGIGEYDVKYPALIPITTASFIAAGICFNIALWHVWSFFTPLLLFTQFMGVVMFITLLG
UniProt Q658Y4: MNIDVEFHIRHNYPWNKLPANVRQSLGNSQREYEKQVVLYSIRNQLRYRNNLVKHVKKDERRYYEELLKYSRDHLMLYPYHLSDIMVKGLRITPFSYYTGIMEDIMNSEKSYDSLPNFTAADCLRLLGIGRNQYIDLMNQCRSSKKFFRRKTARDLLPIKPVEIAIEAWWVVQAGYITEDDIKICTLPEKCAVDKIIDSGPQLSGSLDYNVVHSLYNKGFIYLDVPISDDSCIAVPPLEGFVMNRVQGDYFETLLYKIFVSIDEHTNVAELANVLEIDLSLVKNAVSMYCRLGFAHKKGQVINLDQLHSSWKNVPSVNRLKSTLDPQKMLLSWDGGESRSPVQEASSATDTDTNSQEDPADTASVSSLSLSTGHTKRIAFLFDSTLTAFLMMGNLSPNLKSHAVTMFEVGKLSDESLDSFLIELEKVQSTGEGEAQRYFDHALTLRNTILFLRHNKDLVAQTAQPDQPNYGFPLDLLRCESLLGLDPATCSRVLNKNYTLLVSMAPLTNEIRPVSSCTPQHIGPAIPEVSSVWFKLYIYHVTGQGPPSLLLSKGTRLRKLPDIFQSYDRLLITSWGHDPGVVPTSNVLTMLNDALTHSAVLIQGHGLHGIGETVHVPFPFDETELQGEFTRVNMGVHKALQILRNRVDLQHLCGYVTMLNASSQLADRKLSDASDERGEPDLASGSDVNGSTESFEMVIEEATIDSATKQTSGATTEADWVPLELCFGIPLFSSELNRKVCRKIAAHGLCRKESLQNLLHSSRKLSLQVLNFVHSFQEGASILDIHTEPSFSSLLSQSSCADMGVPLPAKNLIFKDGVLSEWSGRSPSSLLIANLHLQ
UniProt Q5RKV6, whole entry: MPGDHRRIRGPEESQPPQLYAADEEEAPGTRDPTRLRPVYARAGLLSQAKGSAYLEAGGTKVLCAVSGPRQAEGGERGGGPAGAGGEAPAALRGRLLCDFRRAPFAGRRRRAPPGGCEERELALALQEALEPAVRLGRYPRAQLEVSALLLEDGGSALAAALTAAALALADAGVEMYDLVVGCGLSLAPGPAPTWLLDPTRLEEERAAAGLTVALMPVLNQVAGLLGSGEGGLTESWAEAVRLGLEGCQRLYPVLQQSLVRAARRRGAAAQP
UniProt Q5VWQ0: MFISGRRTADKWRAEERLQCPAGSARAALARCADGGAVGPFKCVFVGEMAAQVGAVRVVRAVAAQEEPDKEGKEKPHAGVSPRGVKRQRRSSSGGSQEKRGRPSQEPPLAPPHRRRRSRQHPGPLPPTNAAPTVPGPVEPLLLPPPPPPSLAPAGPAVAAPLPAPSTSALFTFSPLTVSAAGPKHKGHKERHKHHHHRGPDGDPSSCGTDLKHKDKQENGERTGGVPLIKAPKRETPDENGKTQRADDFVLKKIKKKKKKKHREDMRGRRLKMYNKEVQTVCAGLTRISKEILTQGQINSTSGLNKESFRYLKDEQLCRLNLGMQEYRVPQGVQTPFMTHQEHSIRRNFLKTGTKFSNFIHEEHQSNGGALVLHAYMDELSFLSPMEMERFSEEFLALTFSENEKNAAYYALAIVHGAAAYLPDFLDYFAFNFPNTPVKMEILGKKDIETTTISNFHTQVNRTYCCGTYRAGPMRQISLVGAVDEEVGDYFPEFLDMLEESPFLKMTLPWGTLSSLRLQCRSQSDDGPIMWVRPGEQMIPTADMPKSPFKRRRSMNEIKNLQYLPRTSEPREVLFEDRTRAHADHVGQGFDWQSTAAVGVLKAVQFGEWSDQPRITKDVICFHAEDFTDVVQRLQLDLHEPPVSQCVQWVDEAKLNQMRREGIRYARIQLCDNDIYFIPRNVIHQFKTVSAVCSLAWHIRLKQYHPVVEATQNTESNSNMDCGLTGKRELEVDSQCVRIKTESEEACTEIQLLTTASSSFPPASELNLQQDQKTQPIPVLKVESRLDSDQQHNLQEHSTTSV
UniProt Q5MNZ6: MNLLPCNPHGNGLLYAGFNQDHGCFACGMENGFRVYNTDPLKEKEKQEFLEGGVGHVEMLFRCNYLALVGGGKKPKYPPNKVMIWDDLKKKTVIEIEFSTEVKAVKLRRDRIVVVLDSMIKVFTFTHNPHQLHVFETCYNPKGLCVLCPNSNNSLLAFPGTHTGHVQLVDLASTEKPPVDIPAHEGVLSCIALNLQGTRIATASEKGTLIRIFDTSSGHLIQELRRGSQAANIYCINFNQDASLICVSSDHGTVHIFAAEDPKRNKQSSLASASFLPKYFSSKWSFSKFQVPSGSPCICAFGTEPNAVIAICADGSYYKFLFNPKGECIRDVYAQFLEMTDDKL
UniProt Q6P3W7: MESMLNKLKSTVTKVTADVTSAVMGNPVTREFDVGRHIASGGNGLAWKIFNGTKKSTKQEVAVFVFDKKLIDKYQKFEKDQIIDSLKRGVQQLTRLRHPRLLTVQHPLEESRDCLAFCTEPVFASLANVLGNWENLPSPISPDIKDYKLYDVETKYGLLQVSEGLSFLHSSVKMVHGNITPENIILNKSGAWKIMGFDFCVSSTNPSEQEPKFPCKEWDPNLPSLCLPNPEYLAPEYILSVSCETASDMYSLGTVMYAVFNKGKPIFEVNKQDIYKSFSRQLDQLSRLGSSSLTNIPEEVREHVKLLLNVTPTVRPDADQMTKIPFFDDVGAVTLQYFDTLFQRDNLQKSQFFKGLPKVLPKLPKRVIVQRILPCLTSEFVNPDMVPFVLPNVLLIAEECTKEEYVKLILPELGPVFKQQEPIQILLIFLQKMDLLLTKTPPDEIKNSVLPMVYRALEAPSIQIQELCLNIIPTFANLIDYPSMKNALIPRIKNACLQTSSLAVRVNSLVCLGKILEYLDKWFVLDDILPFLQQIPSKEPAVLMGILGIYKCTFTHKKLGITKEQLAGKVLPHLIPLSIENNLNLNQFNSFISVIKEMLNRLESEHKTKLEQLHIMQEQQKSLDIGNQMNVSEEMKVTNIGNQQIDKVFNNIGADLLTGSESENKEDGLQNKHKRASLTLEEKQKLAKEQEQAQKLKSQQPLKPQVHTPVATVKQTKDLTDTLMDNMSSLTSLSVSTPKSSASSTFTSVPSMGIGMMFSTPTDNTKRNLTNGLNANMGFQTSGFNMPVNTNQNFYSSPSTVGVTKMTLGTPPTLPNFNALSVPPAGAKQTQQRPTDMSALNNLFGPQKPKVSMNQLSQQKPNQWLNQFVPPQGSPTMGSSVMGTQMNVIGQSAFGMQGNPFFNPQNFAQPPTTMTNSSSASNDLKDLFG
UniProt Q6P444: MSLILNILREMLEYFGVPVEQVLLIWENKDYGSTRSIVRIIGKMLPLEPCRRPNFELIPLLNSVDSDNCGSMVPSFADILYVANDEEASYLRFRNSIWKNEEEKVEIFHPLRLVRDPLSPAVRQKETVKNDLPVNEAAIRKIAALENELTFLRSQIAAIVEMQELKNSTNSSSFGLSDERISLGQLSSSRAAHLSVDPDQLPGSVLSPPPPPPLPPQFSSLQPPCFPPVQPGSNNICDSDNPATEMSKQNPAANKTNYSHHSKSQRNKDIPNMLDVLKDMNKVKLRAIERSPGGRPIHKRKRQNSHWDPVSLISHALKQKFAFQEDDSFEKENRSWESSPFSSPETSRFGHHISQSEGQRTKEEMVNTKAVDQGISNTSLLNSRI
UniProt Q6JQN1: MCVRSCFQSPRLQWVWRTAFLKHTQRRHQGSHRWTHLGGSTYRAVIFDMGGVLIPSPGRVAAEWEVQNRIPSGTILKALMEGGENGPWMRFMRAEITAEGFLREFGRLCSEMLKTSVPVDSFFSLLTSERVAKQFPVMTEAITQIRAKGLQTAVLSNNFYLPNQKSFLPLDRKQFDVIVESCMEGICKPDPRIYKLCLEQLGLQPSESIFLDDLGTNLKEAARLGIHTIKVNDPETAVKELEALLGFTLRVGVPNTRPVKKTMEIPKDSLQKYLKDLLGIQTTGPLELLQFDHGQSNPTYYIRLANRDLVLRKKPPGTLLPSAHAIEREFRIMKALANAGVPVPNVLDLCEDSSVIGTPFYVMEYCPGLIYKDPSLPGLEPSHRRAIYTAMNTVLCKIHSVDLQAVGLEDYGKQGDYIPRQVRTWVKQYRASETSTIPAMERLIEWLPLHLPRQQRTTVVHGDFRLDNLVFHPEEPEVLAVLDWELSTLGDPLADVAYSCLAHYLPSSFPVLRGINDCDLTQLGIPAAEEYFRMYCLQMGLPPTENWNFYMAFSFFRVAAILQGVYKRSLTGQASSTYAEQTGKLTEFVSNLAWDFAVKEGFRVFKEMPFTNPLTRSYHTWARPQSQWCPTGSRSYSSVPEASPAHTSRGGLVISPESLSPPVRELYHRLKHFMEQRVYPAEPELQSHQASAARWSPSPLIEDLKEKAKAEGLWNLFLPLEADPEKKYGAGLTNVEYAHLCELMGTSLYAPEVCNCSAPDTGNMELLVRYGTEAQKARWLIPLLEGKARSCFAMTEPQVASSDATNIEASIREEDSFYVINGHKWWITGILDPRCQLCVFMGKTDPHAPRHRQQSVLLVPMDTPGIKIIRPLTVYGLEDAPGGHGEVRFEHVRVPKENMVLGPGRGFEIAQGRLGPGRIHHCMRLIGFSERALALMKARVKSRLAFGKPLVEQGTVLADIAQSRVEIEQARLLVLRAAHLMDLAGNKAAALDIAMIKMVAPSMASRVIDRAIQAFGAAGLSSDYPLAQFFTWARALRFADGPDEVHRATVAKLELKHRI
UniProt Q6P1N0: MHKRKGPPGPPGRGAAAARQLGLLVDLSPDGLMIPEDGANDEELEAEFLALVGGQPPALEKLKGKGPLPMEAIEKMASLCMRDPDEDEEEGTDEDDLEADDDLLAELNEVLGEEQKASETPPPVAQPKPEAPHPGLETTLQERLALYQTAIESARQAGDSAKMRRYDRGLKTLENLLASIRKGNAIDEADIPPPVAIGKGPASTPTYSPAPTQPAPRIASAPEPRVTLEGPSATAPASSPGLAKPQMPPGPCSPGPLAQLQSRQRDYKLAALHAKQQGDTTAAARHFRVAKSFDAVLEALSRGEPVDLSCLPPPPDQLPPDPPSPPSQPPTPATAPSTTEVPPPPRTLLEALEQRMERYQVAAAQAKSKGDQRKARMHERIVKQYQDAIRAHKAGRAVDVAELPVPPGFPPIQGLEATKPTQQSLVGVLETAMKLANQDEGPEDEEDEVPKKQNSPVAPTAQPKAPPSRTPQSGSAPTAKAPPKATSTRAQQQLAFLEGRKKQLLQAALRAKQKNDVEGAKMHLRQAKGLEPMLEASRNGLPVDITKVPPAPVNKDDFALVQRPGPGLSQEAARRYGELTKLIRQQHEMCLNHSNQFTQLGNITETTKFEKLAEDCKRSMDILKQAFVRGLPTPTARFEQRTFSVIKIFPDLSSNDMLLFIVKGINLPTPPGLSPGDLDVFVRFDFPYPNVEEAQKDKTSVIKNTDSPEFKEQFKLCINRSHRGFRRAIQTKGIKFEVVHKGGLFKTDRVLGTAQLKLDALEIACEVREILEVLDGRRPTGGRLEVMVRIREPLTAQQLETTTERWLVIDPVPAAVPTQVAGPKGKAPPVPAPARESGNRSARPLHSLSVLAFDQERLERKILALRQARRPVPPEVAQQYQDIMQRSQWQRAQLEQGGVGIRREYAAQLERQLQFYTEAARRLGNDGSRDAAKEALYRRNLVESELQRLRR
UniProt Q6NVY1: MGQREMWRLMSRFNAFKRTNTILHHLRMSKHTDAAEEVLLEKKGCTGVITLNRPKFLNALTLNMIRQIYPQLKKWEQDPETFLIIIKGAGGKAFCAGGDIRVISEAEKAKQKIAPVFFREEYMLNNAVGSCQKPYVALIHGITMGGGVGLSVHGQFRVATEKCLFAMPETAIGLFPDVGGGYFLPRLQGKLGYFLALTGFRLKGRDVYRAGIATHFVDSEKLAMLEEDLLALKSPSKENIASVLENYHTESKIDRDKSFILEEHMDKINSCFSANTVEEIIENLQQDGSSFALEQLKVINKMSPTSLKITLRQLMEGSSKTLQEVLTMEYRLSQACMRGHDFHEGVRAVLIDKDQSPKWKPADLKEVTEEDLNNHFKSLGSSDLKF
UniProt Q68D85: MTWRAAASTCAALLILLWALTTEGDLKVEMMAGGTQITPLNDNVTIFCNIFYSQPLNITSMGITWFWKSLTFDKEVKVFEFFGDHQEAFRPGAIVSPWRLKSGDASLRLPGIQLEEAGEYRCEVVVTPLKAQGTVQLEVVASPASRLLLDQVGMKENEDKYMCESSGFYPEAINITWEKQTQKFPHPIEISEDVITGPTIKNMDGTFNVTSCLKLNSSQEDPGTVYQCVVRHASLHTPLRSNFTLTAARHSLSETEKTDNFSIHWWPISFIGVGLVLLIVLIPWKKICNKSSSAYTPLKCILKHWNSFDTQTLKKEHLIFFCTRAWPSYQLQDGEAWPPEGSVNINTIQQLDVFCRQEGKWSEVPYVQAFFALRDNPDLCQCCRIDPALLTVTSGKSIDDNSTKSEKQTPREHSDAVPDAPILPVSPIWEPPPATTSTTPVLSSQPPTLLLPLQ

The other results are listed elsewhere or left out. The data scatter; read single values as rough.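 Tm was set to 64 °C where no melting was found, and many curves are irregular.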

Compound in one assay: CCc1cnccc1C(=O)Nc1cc2c(cc1F)NC(=O)CC2
As to the kind of experiment: melting temperature shift (DMSO Tm minus MBE1-treated Tm) in cellular thermal proteome profiling; higher = less thermal stabilization by MBE1 (negative = stabilized by MBE1). The settings on record: A375; MBE1 concentration: 100 nM.
As to UniProt Q5BJH2, the melting temperature shift was -3.86 °C.
Same read-out and setting: next, FAM91A1 (UniProt Q658Y4): -0.127 °C.
Turning to EXOSC6 (UniProt Q5RKV6), the melting temperature shift was -3.77 °C.
Still for that read-out and setting: next, ALKBH2 (UniProt Q6NS38): -0.464 °C; JMJD6 (UniProt Q6NYC1): -0.79 °C; RSBN1 (UniProt Q5VWQ0): -1.91 °C.
As to UniProt Q68DY1, the melting temperature shift was -1.19 °C.
Still for that read-out and setting: next, NT5DC1 (UniProt Q5TFE4): -0.153 °C; UniProt Q5SW96: -0.48 °C.
On the same count and under the same terms, next, UniProt Q6NXT4: -0.53 °C.
As for WDR45B (UniProt Q5MNZ6), the melting temperature shift is -1.58 °C.
For SCYL2 (UniProt Q6P3W7), the melting temperature shift is -0.363 °C.
Regarding UniProt Q6P444, the melting temperature shift was determined as 0.0855 °C.
For the target ZCCHC6 (UniProt Q5VYS8), the melting temperature shift is -1 °C.
Same read-out and setting: next, SH3PXD2A (UniProt Q5TCZ1): -2.01 °C; UniProt Q5T6S3: -0.579 °C; UniProt Q5JWF2: -1.37 °C.
TAF2 (UniProt Q6P1X5): the melting temperature shift is -0.495 °C.
As for CWF19L1 (UniProt Q69YN2), the melting temperature shift turned out to be 0.605 °C.
For the target UniProt Q5C9Z4, the melting temperature shift was -0.48 °C.
On the same count and under the same terms, next, UniProt Q5THK1: -0.421 °C; UniProt Q5T3J3: -2.31 °C.
On the same count and under the same terms, next, C8ORF82 (UniProt Q6P1X6): -0.986 °C.
Still for that read-out and setting: next, TYW3 (UniProt Q6IPR3): -0.733 °C; MRPL2 (UniProt Q5T653): 1.27 °C.
As for FAHD1 (UniProt Q6P587), the melting temperature shift is -0.721 °C.
As for UniProt Q6F5E8, the melting temperature shift was -1.64 °C.
Still for that read-out and setting: next, RNASEH2B (UniProt Q5TBB1): -1.01 °C; UniProt Q6JQN1: 0 °C.
Still for that read-out and setting: next, CC2D1A (UniProt Q6P1N0): -0.219 °C; UniProt Q5SRI9: -1.9 °C; MANEAL (UniProt Q5VSG8): -1.03 °C.
HIBCH (UniProt Q6NVY1): the melting temperature shift was 0.91 °C.
For UniProt Q5TGY3, the melting temperature shift was -0.545 °C.
The same measure, in the same setting: next, UniProt Q68D85: -3.02 °C; ACBD5 (UniProt Q5T8D3): -1.06 °C; UniProt Q5T200: -0.543 °C.
UniProt Q6NSI4: the melting temperature shift was -0.523 °C.

The same assay, now with this note: A375; MBE1 concentration: 1 uM.
Consider UniProt Q5BJH2, for which the melting temperature shift came to 2.34 °C.
With FAM91A1 (UniProt Q658Y4), the melting temperature shift came out at 0.434 °C.
Still for that read-out and setting: next, EXOSC6 (UniProt Q5RKV6): 0.472 °C; ALKBH2 (UniProt Q6NS38): -0.0733 °C; JMJD6 (UniProt Q6NYC1): -0.729 °C.
On the same count and under the same terms, next, RSBN1 (UniProt Q5VWQ0): 0.641 °C.
Consider UniProt Q68DY1, for which the melting temperature shift stood at 0.11 °C.
The same measure, in the same setting: next, NT5DC1 (UniProt Q5TFE4): 1.6 °C; UniProt Q5SW96: -0.325 °C; UniProt Q6NXT4: 0.563 °C.
On the same count and under the same terms, next, WDR45B (UniProt Q5MNZ6): -1.88 °C; SCYL2 (UniProt Q6P3W7): 0.415 °C; UniProt Q6P444: -1.28 °C.
Take ZCCHC6 (UniProt Q5VYS8): the melting temperature shift was -1.08 °C.
On the same count and under the same terms, next, SH3PXD2A (UniProt Q5TCZ1): 2.93 °C; UniProt Q5T6S3: -0.826 °C; UniProt Q5JWF2: -1.19 °C.
Same read-out and setting: next, TAF2 (UniProt Q6P1X5): -0.732 °C; CWF19L1 (UniProt Q69YN2): -0.324 °C; UniProt Q5C9Z4: -0.301 °C.
With UniProt Q5THK1, the melting temperature shift was 1.81 °C.
UniProt Q5T3J3: the melting temperature shift worked out at 0.669 °C.
On the same count and under the same terms, next, C8ORF82 (UniProt Q6P1X6): 0.0427 °C.
The same measure, in the same setting: next, TYW3 (UniProt Q6IPR3): 0.796 °C.
On to MRPL2 (UniProt Q5T653), for which the melting temperature shift is 1.32 °C.
With FAHD1 (UniProt Q6P587), the melting temperature shift was -0.0709 °C.
For UniProt Q6F5E8, the melting temperature shift was -2.47 °C.
As to RNASEH2B (UniProt Q5TBB1), the melting temperature shift was -0.00941 °C.
UniProt Q6JQN1: the melting temperature shift was -0.0174 °C.
The same measure, in the same setting: next, CC2D1A (UniProt Q6P1N0): -0.282 °C; UniProt Q5SRI9: 0.733 °C.
In the case of MANEAL (UniProt Q5VSG8), the melting temperature shift was -0.0939 °C.
Still for that read-out and setting: next, HIBCH (UniProt Q6NVY1): 0.122 °C; UniProt Q5TGY3: -0.66 °C; UniProt Q68D85: -2.69 °C.
Still for that read-out and setting: next, ACBD5 (UniProt Q5T8D3): -0.558 °C.
Still for that read-out and setting: next, UniProt Q5T200: -0.494 °C; UniProt Q6NSI4: 4.7 °C.
